Data as given in PubChem BioAssay AID686943 (Drosophila RNAi Screening Center, 2013).

- Test: 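Knockdowns that increase or decrease active ERK after insulin receptor stimulation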 (primary screen)
- System: Drosophila S2R+ haemocyte-like cells expressing YFP-tagged ERK (Rolled)
- Reagents: long dsRNA against Drosophila genes
- Conditions: insulin stimulation versus unstimulated cells; dose and duration not given
- Detection: 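Per-plate z-scores of phospho-ERK immunostaining normalised to YFP-tagged ERK, measured with and without insulin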
- Scale: replicate 1, z-score of dpERK with insulin: higher = more active ERK per ERK-YFP after insulin
In all, the deposit lists about 23,000 reagents; below is a random part of those that have a named target and a result. 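Extra replicates exist only for a retested subset of genes; insulin dose and duration not given; both raised and lowered dpERK matter.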 Reagents against one gene are numbered here. Names joined by + are all predicted targets of the reagent. Further read-outs or replicates are left out here. Reagent sequences are not shown. Not given: the amount of reagent, the time to read-out.

anchor → replicate 1, z-score of dpERK with insulin: 0.14
Ctu2 → replicate 1, z-score of dpERK with insulin: 0.32
Ogdh #1 → replicate 1, z-score of dpERK with insulin: -0.17
Ogdh #2 → replicate 1, z-score of dpERK with insulin: 0.18
Hmu → replicate 1, z-score of dpERK with insulin: 0.16
Vps60 → replicate 1, z-score of dpERK with insulin: 0.03
kkv → replicate 1, z-score of dpERK with insulin: 0.48
ppk25 → replicate 1, z-score of dpERK with insulin: 0.65
SdhD → replicate 1, z-score of dpERK with insulin: -0.87
CG31668 → replicate 1, z-score of dpERK with insulin: -0.19
Cec2 → replicate 1, z-score of dpERK with insulin: -0.19
CG3702 → replicate 1, z-score of dpERK with insulin: -0.11
NdufV3 → replicate 1, z-score of dpERK with insulin: 0.61
Nse4 → replicate 1, z-score of dpERK with insulin: -0.28
CG14434 → replicate 1, z-score of dpERK with insulin: 0.63
CG7246 → replicate 1, z-score of dpERK with insulin: -0.73
CG3309 → replicate 1, z-score of dpERK with insulin: -0.07
alphaTub84B → replicate 1, z-score of dpERK with insulin: -0.79
CG7432 → replicate 1, z-score of dpERK with insulin: 0.1
upd2 → replicate 1, z-score of dpERK with insulin: 0.88
Est-6 → replicate 1, z-score of dpERK with insulin: -0.22
CG5098 → replicate 1, z-score of dpERK with insulin: 0.02
CG9855 → replicate 1, z-score of dpERK with insulin: -0.14
CG8860 → replicate 1, z-score of dpERK with insulin: 0.6
CG34447 → replicate 1, z-score of dpERK with insulin: 0.79

A run of entries taken from the entries so far, for reference:
CG7246 → replicate 1, z-score of dpERK with insulin: -0.73
CG3309 → replicate 1, z-score of dpERK with insulin: -0.07
alphaTub84B → replicate 1, z-score of dpERK with insulin: -0.79
CG7432 → replicate 1, z-score of dpERK with insulin: 0.1

The list goes on:
Bre1 → replicate 1, z-score of dpERK with insulin: 0.82
ssp3 #1 → replicate 1, z-score of dpERK with insulin: 0.02
ssp3 #2 → replicate 1, z-score of dpERK with insulin: 0.37
CG43174 (retired record) + CG43173 (retired record) → replicate 1, z-score of dpERK with insulin: -0.16
VhaM9.7-a → replicate 1, z-score of dpERK with insulin: 0.34
CG33468 → replicate 1, z-score of dpERK with insulin: -0.1
CG7694 → replicate 1, z-score of dpERK with insulin: 0.12
lin → replicate 1, z-score of dpERK with insulin: 0.88
CG8067 → replicate 1, z-score of dpERK with insulin: 0.31
S-Lap1 → replicate 1, z-score of dpERK with insulin: -0.46
CG6661 + asRNA:CR42871 → replicate 1, z-score of dpERK with insulin: 0.21
DCX-EMAP #1 → replicate 1, z-score of dpERK with insulin: 0.35
DCX-EMAP #2 → replicate 1, z-score of dpERK with insulin: -0.74
CG12744 → replicate 1, z-score of dpERK with insulin: 0.5
CG33259 → replicate 1, z-score of dpERK with insulin: 0.34
